The source of these data is patent US20220002426A1.

Results are given in words; binding and its absence hold for the method and conditions named. Some entries that bind do so weakly or less than the wild type.

B1: 001-G10 (antibody, V domains shown)
VH: EVQLLESGGGLVQPGGSLRLSCAASGFTFSAYGMHWVRQAPGKGLEWVAVVSYDGREKHYADSVKGRFTISRDNSKNTLYLQMNSLRAEDTAVYYCARSDGGYDSDSGYYWGQGTLVTVSS
VL: QSVLTQPPSASGTPGQRVTISCSGSTSNIGSNFVYWYQQLPGTAPKLLIYDNNKRPSGVPDRFSGSKSGTSASLAISGLRSEDEADYYCSSYAYSDNILFGGGTKLTVLG
B2: 001-B09 (antibody, V domains shown)
VH: EVQLLESGGGLVQPGGSLRLSCAASGFTFSRHAMNWVRQAPGKGLEWVSSISTGSSYIDYADSVKGRFTISRDNSKNTLYLQMNSLRAEDTAVYYCAREKGHYYYGMDVWGQGTLVTVSS
VL: QSVLTQPPSASGTPGQRVTISCTGSSSNIGAGYDVHWYQQLPGTAPKLLIYGNSYRPSGVPDRFSGSKSGTSASLAISGLRSEDEADYYCQSYDTSLSAYVVFGGGTKLTVLG
B3: 001-C03 (antibody, V domains shown)
VH: EVQLLESGGGLVQPGGSLRLSCAASGFTFSNAWMSWVRQAPGKGLEWVSAISVSGINTYYADSVKGRFTISRDNSKNTLYLQMNSLRAEDTAVYYCARDTGSLGVDYWGQGTLVTVSS
VL: QSVLTQPPSASGTPGQRVTISCSGSSSNIGSNTVNWYQQLPGTAPKLLIYRNNQRPSGVPDRFSGSKSGTSASLAISGLRSEDEADYYCQSYDSSLSISVFGGGTKLTVLG
B4: 001-B05 (antibody, V domains shown)
VH: EVQLLESGGGLVQPGGSLRLSCAASGFTFSNAWMSWVRQAPGKGLEWVSSISSASGYIYYGDSVKGRFTISRDNSKNTLYLQMNNLRAEDTAVYYCARGTLYGDFDEFWGQGTLVTVSS
VL: QSVLTQPPSASGTPGQRVTISCSGSSSNIGNNAVNWYQQLPGTAPKLLIYGNTNRPSGVPDRFSGSKSGTSASLAISGLRSEDEADYYCQSYDSSLSGYVVFGGGTKLTVLG
B5: 001-F02 (antibody, V domains shown)
VH: EVQLLESGGGLVQPGGSLRLSCAASGFTFSDYYMSWVRQAPGKGLEWVANINTDGSEKYYLDSVKGRFTISRDNSKNTLYLQMNSLRAEDTAVYYCAREEYGAFDIWGQGTLVTVSS
VL: QSVLTQPPSASGTPGQRVTISCSGSSSNIGSNTVNWYQQLPGTAPKLLIYDNNKRPSGVPDRFSGSKSGTSASLAISGLRSEDEADYYCQSFDRGLSGSIVFGGGTKLTVLG
B6: 001-C05 (antibody, V domains shown)
VH: EVQLLESGGGLVQPGGSLRLSCAASGFTFSSNEMSWIRQAPGKGLEWVSVIYSGGSTYYADSVKGRFTISRDNSKNTLYLQMNSLRAEDTAVYYCARREGWLVPFDYWGQGTLVTVSS
VL: QSVLTQPPSASGTPGQRVTISCSGSSSNIGSNTVNWYQQLPGTAPKLLIYGNIIRPSGVPDRFSGSKSGTSASLAISGLRSEDEADYYCQSFDTTLSGSIVFGGGTKLTVLG
B7: 001-A09 (antibody, V domains shown)
VH: EVQLLESGGGLVQPGGSLRLSCAASGFTFSSNYMSWVRQAPGKGLEWVSVISGSGGSTYYADSVKGRFTISRDNSKNTLYLQMNSLRAEDTAVYYCARDRGWFDPWGQGTLVTVSS
VL: QSVLTQPPSASGTPGQRVTISCSGSRSNIDNSYVSWYQQLPGTAPKLLIYRNNQRPSGVPDRFSGSKSGTSASLAISGLRSEDEADYYCATWDDSLSGPVFGGGTKLTVLG
B8: 001-E06 (antibody, V domains shown)
VH: EVQLLESGGGLVQPGGSLRLSCAASGFTFSSNYMSWVRQAPGKGLEWVALIWYDGSNKYYADSVKGRFTISRDNSKNTLYLQMNSLRAEDTAVYYCAKDPLFDSWGQGTLVTVSS
VL: QSVLTQPPSASGTPGQRVTISCTGRSSNIGAGYDVHWYQQLPGTAPKLLIYDNNKRPSGVPDRFSGSKSGTSASLAISGLRSEDEADYYCAAWDDSLNGPVFGGGTKLTVLG
B9: 004-E08 (antibody, V domains shown)
VH: EVQLLESGGGLVQPGGSLRLSCAASGFTFSRYWMHWVRQVPGKGLEWVSGISDSGVVTYYADSVKGRFTISRDNSKNTLYLQMNSLRAEDTAVYYCARAQSVAFDIWGQGTLVTVSS
VL: QSVLTQPPSASGTPGQRVTISCSGSSSNIGAGHDVHWYQQLPGTAPKLLIYYDDLLPSGVPDRFSGSKSGTSASLAISGLRSEDEADYYCAAWDDSLSGWVFGGGTKLTVLG
B10: 001-H10 (antibody, V domains shown)
VH: EVQLLESGGGLVQPGGSLRLSCAASGFTFDDYGMSWVRQAPGKGLEWVSVIYSGGSTYYADSVKGRFTISRDNSKNTLYLQMNSLRAEDTAVYYCARDRSSSWYRDGMDVWGQGTLVTVSS
VL: QSVLTQPPSASGTPGQRVTISCTGSSSNIGAGYDVHWYQQLPGTAPKLLIYGNSNRPSGVPDRFSGSKSGTSASLAISGLRSEDEADYYCAAWDDSLSGWVFGGGTKLTVLG
B11: 001-F06 (antibody, V domains shown)
VH: EVQLLESGGGLVQPGGSLRLSCAASGFTFSSYAMHWVRQAPGKGLEWVSAISGGATTTYYADSVKGRFTISRDNSKNTLYLQMNSLRAEDTAVYYCAKGGTGDPYYFDYWGQGTLVTVSS
VL: QSVLTQPPSASGTPGQRVTISCTGSSSNIGAGYDVHWYQQLPGTAPKLLIYRNNQRPSGVPDRFSGSKSGTSASLAISGLRSEDEADYYCAARDDGLSGPVFGGGTKLTVLG

The target of this assay is Cynomolgus TNFR2 (on cynomolgus CD4+ T cells) (cynomolgus monkey (Macaca fascicularis)). Kind of assay: FACS, stimulated cynomolgus CD4+ T cells, % over isotype. (In general: Flow cytometry measures light scatter and fluorescence of single cells or particles in a stream.)
As for B1, the binding result is listed as “binds”. Regarding B2, the binding result is “binds”. For B3, the binding entry is listed as “binds”. Then B4, with “binds”. For B5, the binding result was “binds”. The result for B6 reads “binds”; that for B7, “binds”; that for B8, “binds”. The result for B9 reads “binds”.

In the case of B10, the binding result is “binds”. The result for B11 reads “binds”.
